In patent publication US8377934B2, “Use of stilbene derivatives for treatment and prevention of aquatic mold infections” (State of Israel, Ministry of Agriculture & Rural …, priority 2006, dated 2013):
For at least one compound, name, drawing or mass did not settle the structure.

Test system: Saprolegnia parasitica T-1
Test: Tilapia-saprolegniosis early infection model
Format: in vivo, Hybrid tilapia (Oreochromis niloticus X Oreochromis aureus)
Settings: Table 4 summary
Procedure: Hybrid tilapia (Oreochromis niloticus X Oreochromis aureus), with an average weight of 20 g were treated against ectoparasites using 25 μg/ml of formaldehyde (37% v/v) two weeks prior to the experiment, and were maintained at a constant temperature of 21° C. in a 100 liter polyethylene tank. The water tank was cooled from an initial temperature of 21° C. to 14° C. over a period of 10 days. The water was kept at a constant temperature of 14° C. and the fish were acclimated for 4 days. Physical stress of abrasion was then applied by agitating 40 fish for 10 seconds within a plastic net (30×20 cm). […] The density of the zoospores in the water was determined according to the method described below, and was estimated as 5×10^2-2×10^3 zoospores per liter. […] The fish were monitored for 14 days for the presence of any lesion covered with hyphae, indicative of Saprolegnia infection. […] Morbidity and mortality was monitored daily. […]
In brief, a 1 liter sample of water from the 100 liter tank was divided into 1 and 10 ml aliquots in sterile Petri dishes. […] The density of the zoospores was determined according to the number of seeds covered with visible mycelium.
Treatments were carried out on the 2nd, 4th and 6th days after the initiation of the infection, and each treatment was for a period of 8 h. […] Fish were monitored for 14 days. […]

O=[N+]([O-])C(Br)(CO)CO [Pyceze ®]
Therapeutic efficacy: Non effective
